Drawing on PMC12488962, this text covers binding for 2 molecules.

The chains behind the UniProt entries cited, without tags or fusion partners.
UniProt P15307: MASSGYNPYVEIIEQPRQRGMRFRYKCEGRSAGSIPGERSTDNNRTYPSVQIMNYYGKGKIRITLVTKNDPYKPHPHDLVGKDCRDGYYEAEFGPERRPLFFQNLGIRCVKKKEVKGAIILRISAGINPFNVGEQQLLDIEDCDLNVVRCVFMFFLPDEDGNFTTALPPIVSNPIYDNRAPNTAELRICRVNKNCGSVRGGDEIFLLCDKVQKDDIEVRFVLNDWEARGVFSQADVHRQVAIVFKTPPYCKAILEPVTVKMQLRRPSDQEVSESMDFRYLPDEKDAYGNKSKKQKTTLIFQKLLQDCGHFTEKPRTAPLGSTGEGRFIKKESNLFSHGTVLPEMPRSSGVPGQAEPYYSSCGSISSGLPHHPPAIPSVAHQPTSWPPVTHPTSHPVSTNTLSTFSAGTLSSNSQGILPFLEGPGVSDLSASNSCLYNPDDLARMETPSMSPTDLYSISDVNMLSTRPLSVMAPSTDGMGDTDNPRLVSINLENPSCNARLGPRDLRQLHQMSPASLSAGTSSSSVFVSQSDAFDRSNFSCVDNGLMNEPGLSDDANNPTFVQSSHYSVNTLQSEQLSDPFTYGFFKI

Assay [1] addresses T1, sialin, endogenous in macrophages (mouse (endogenous in Raw264.7)) (UniProt Q8BN82).
T1 sequence: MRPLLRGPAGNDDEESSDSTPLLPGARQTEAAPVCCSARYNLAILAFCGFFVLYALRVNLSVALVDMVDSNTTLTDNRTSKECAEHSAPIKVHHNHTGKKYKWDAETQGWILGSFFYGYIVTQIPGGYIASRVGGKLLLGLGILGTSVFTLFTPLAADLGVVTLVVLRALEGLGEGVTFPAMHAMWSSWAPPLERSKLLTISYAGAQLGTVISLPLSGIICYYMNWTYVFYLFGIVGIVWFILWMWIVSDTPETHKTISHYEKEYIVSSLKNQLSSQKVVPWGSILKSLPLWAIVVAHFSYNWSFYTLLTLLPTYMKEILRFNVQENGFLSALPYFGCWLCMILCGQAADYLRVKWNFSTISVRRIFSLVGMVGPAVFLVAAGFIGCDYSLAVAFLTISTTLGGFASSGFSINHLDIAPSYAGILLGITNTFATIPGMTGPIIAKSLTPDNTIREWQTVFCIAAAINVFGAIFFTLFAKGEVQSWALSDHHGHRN
Nature of the assay: proximity ligation; Raw264.7 cells, Duolink In Situ Detection Reagents Red, Anti-Mouse MINUS and Anti-Rabbit PLUS probes, confocal imaging.

For assay [2], the target named is Rel (c-Rel, proto-oncogene Rel) (mouse (endogenous in Raw264.7)) (UniProt P15307). The assay is described as follows: co-IP; cell lysate in modified RIPA buffer, precleared with protein G beads, anti-Rel mouse monoclonal antibody (sc-6955X) overnight, protein G beads, three washes with RIPA buffer, SDS-PAGE and blot.

These are yes or no findings as the source states them, for the method shown. In cells and extracts the contact can be indirect. Some entries that bind do so weakly or less than the wild type. For some assays here: Where a sequence is shown, tags or fusion partners need not be part of it.

On to “Rel (c-Rel, proto-oncogene Rel) (from UniProt P15307 1-587)”, for which the binding entry in assay [1] is “binds”.

B1: His-Slc17a5 (sialin), stably overexpressed in Raw264.7 macrophages (protein, UniProt Q8BN82 1-495)
chain: MRPLLRGPAGNDDEESSDSTPLLPGARQTEAAPVCCSARYNLAILAFCGFFVLYALRVNLSVALVDMVDSNTTLTDNRTSKECAEHSAPIKVHHNHTGKKYKWDAETQGWILGSFFYGYIVTQIPGGYIASRVGGKLLLGLGILGTSVFTLFTPLAADLGVVTLVVLRALEGLGEGVTFPAMHAMWSSWAPPLERSKLLTISYAGAQLGTVISLPLSGIICYYMNWTYVFYLFGIVGIVWFILWMWIVSDTPETHKTISHYEKEYIVSSLKNQLSSQKVVPWGSILKSLPLWAIVVAHFSYNWSFYTLLTLLPTYMKEILRFNVQENGFLSALPYFGCWLCMILCGQAADYLRVKWNFSTISVRRIFSLVGMVGPAVFLVAAGFIGCDYSLAVAFLTISTTLGGFASSGFSINHLDIAPSYAGILLGITNTFATIPGMTGPIIAKSLTPDNTIREWQTVFCIAAAINVFGAIFFTLFAKGEVQSWALSDHHGHRN
With B1, the binding entry in assay [2] is reported as “binds”.
